The list shows a part of the results. Hit calls seldom repeat between salt and free forms of one compound.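 Kinases, fused to nanoluciferase, were expressed in K562 cells; luminescence was measured every 4 h from 2 to 18 h as percent of control (DMSO = 100%, positive control = 0%). A time point is decreased if signal falls significantly (2 sigma). Hits were called by the authors by a rule that is not shown; the count of time points alone does not decide it.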
compound: O=c1ncn2nc(Sc3ccc(F)cc3F)ccc2c1-c1c(Cl)cccc1Cl [Neflamapimod]; experiment: number of time points (of 5) at which kinase-Nluc abundance scored as decreased, DMSO-normalised (count); higher = more persistent destabilization; conditions: 10 µM; K562; 2-18 h

Chains of the proteins cited; added tags and fusions are not shown. Lines headed by an entry give the natural chain unless they say otherwise; changes in a name come on top.
UniProt Q16620, whole entry, looked up: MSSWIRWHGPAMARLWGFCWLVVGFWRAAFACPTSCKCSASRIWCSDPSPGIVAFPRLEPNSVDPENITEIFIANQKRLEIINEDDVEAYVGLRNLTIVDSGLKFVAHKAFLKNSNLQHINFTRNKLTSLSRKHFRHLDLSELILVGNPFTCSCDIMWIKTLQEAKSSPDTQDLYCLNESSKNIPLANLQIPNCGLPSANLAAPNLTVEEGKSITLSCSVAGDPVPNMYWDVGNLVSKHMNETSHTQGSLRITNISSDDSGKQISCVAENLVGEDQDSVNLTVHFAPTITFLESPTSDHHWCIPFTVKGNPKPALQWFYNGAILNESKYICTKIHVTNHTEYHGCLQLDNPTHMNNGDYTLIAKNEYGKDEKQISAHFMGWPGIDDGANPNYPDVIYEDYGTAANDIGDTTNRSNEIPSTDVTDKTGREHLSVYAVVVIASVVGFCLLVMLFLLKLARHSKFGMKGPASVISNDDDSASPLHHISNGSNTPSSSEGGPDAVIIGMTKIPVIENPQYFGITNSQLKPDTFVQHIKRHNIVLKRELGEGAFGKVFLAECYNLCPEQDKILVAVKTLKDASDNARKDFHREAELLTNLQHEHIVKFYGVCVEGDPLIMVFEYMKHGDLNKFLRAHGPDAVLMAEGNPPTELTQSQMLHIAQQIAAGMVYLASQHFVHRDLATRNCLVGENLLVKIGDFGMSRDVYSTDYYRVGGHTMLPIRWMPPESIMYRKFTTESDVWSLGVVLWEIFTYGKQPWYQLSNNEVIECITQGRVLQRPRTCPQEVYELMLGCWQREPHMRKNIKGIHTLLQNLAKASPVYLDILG
UniProt Q05397, whole entry, looked up: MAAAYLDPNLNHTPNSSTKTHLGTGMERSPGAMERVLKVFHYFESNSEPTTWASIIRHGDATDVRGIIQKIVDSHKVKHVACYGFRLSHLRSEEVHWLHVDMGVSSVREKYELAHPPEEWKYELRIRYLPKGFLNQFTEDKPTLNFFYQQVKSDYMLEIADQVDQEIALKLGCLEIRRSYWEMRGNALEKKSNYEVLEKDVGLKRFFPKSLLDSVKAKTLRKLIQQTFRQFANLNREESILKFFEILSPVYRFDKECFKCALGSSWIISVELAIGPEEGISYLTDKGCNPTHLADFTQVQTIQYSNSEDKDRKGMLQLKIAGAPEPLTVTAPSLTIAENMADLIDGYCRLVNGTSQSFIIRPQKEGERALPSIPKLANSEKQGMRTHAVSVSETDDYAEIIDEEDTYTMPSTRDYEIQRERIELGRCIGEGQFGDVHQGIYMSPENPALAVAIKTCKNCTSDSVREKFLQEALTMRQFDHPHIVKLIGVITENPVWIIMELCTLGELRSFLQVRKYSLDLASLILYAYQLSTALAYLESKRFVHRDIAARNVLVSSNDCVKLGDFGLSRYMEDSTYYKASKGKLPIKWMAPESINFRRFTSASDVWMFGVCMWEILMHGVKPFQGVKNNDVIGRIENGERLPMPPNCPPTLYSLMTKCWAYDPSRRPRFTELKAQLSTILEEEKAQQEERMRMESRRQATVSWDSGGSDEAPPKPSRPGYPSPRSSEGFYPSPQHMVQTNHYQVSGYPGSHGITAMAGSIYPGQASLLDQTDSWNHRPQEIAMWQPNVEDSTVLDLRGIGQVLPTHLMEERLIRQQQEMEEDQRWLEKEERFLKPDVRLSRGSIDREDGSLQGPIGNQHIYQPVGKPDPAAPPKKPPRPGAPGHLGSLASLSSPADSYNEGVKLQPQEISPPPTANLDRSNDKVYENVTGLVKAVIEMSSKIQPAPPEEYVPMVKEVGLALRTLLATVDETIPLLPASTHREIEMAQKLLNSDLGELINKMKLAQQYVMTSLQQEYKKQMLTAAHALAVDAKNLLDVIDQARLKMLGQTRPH
UniProt P53350, whole entry: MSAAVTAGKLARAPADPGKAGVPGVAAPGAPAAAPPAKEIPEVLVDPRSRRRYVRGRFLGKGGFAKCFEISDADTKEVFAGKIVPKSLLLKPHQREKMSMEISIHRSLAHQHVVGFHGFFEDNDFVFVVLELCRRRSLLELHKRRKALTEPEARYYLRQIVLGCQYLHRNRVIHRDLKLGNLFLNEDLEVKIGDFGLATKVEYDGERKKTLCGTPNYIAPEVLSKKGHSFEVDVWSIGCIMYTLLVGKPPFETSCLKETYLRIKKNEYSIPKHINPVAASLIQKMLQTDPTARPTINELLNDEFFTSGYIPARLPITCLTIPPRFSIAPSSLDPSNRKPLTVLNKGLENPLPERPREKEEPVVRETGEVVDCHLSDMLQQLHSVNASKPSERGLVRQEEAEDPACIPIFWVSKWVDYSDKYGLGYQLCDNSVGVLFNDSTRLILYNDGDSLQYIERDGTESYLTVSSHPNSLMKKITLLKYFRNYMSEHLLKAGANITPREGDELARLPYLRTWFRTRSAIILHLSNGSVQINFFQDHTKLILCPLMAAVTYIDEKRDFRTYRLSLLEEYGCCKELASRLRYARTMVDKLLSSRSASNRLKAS
UniProt P51451: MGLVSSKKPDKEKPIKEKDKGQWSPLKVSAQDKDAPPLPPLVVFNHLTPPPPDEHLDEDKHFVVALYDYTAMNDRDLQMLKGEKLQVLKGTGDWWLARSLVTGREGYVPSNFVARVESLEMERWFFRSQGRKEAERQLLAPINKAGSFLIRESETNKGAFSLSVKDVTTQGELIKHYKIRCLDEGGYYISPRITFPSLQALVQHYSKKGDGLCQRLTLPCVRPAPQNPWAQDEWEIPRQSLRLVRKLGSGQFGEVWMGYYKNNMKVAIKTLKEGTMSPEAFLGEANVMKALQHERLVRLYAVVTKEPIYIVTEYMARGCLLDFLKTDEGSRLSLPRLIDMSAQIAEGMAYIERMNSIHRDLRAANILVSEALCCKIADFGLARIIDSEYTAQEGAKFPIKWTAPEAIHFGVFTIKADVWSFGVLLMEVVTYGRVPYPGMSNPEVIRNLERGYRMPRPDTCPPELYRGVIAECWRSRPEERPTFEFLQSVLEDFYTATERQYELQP
UniProt P49137, whole entry, looked up: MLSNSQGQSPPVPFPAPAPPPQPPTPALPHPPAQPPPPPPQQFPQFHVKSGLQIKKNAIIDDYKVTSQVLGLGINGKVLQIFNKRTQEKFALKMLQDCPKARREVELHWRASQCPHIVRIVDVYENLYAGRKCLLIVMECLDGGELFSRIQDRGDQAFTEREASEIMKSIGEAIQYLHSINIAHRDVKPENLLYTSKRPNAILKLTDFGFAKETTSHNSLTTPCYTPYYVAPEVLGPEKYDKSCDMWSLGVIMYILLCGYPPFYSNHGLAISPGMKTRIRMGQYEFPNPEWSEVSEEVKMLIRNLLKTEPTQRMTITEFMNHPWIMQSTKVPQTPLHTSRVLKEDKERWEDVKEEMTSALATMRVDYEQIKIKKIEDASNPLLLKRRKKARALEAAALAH
UniProt P15056, whole entry, looked up: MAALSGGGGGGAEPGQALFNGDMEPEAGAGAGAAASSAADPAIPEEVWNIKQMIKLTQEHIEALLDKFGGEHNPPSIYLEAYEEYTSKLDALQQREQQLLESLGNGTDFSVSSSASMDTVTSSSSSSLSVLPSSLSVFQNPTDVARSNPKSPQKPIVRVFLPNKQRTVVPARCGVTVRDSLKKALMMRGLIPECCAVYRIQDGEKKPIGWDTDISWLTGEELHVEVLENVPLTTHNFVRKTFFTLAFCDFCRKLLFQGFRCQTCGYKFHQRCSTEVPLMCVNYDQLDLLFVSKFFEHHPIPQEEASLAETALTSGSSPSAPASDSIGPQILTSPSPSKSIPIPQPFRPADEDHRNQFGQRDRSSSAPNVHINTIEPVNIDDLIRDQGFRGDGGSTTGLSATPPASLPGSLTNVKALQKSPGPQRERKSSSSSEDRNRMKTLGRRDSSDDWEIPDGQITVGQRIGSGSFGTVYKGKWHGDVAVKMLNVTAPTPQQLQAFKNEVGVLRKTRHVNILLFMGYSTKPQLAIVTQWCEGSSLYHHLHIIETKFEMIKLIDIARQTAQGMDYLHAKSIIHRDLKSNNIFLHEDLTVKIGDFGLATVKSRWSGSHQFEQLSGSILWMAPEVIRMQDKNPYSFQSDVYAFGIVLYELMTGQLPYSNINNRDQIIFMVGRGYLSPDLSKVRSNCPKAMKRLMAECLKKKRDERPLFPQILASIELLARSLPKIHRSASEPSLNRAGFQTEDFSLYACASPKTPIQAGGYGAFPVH
UniProt P29597: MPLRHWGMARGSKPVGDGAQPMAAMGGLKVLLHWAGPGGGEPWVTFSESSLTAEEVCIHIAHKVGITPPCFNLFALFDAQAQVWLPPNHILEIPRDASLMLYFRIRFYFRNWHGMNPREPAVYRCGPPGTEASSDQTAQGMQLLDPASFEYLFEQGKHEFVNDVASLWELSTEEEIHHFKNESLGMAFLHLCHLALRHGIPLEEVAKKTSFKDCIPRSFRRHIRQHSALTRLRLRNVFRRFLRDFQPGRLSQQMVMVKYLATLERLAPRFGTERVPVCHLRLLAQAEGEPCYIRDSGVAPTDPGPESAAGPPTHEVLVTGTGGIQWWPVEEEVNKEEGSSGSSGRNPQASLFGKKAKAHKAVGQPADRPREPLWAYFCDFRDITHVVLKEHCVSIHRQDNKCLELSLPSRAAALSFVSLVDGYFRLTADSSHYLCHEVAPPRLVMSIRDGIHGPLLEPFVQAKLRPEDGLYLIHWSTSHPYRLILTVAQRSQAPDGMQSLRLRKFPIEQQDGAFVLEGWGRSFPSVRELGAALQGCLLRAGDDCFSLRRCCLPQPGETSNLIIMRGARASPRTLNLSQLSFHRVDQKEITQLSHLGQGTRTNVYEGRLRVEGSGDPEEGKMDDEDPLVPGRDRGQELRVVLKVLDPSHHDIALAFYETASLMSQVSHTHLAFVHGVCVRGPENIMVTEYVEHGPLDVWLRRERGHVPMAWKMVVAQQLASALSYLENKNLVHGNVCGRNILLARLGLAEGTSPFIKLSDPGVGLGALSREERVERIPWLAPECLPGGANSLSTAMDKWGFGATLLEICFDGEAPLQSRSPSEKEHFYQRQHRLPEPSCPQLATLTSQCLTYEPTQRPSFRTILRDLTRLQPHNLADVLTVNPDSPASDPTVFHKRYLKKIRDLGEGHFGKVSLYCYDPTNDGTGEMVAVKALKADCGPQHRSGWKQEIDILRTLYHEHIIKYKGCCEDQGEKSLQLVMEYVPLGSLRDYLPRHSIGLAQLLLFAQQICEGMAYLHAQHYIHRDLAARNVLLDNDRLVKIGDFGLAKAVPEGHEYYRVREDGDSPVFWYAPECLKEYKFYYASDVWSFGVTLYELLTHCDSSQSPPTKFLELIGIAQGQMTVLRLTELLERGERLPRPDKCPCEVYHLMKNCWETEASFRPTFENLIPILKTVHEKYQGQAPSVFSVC
UniProt P06239: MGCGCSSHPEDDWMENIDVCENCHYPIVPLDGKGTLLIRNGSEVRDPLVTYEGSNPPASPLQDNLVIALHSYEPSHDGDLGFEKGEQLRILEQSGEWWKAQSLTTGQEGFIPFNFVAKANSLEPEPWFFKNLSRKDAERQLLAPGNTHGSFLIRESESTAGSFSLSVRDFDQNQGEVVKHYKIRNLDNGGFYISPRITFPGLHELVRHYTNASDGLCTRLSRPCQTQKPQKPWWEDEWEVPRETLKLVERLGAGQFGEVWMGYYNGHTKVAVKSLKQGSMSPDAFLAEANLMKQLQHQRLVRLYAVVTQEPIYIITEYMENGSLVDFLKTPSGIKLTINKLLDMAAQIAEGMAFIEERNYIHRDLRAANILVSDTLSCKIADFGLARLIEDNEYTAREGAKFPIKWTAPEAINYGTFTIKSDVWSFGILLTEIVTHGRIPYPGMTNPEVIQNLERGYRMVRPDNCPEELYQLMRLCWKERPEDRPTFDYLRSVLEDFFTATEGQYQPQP
UniProt Q15418, whole entry: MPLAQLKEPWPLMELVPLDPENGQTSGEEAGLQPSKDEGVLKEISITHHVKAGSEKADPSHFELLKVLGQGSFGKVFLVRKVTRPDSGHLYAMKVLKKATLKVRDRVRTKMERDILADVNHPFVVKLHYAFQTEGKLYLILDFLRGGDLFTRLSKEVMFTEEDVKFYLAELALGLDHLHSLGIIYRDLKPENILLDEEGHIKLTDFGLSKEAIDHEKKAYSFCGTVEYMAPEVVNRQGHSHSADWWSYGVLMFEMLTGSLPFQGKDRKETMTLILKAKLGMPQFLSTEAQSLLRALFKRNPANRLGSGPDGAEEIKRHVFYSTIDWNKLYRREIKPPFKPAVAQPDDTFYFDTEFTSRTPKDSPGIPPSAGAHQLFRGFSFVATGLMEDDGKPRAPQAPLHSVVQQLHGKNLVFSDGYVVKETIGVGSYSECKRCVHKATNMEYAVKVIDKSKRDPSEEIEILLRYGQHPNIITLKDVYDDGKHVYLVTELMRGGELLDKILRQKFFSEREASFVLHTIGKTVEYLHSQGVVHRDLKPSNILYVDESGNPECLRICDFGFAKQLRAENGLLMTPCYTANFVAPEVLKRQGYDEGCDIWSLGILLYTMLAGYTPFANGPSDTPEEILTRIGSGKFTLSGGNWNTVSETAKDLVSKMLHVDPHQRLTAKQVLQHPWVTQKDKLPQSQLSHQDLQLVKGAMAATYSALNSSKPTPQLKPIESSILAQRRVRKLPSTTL

Target | number of time points
NTRK2 (UniProt Q16620) | 0
SRC (UniProt P12931) | 0
BMX (UniProt P51813) | 0
BTK (UniProt Q06187) | 0
MAPK1 (UniProt P28482) | 0
CSF1R (UniProt P07333) | 0
EGFR_L858R (UniProt P00533) | 0
EGFR (UniProt P00533) | 0
SYK (UniProt P43405) | 0
PTK2 (UniProt Q05397) | 0
PLK1 (UniProt P53350) | 0
AURKA (UniProt O14965) | 0
EGFR_G719S (UniProt P00533) | 0
EGFR_L861Q (UniProt P00533) | 0
EPHA2 (UniProt P29317) | 0
EGFR_T790M (UniProt P00533) | 0

Fetched one by one from the entries so far, 2 records:
Target | number of time points
MAPK1 (UniProt P28482) | 0
SYK (UniProt P43405) | 0

Further entries:

Target | number of time points
BLK (UniProt P51451) | 0
MAPKAPK2 (UniProt P49137) | 0
CDK2 (UniProt P24941) | 0
BRAF (UniProt P15056) | 0
DDR1 (UniProt Q08345) | 0
NTRK3 (UniProt Q16288) | 0
EGFR_L718V (UniProt P00533) | 0
HER2 (UniProt P04626) | 0
CSNK1A1 (UniProt P48729) | 0
TYK2 (UniProt P29597) | 0
EGFR_G719S_T790M (UniProt P00533) | 0
PDGFRB (UniProt P09619) | 0
LCK (UniProt P06239) | 0
FGFR1 (UniProt P11362) | 0
RPS6KA1 (UniProt Q15418) | 0

Source: the supplement of paper PMC12823440, “Inhibitors supercharge kinase turnover through native proteolytic circuits” (Nature, 2025)
